Results are given in words; binding and its absence hold for the method and conditions named. Binding seen in cells or lysates may run through a third protein. Some binding calls cover weakened binding; strength is not graded here. For some of these results: Sequences can lack the tags named with a protein.
Assays:
[1] = molecular target: T1, FCHo1-C-3×DDK (full-length wild-type FCHo1 with C-terminally fused 3×FLAG tag) (human) (UniProt O14526); assay: co-immunoprecipitation (legend of FIG. 19)
T1 sequence (looked up): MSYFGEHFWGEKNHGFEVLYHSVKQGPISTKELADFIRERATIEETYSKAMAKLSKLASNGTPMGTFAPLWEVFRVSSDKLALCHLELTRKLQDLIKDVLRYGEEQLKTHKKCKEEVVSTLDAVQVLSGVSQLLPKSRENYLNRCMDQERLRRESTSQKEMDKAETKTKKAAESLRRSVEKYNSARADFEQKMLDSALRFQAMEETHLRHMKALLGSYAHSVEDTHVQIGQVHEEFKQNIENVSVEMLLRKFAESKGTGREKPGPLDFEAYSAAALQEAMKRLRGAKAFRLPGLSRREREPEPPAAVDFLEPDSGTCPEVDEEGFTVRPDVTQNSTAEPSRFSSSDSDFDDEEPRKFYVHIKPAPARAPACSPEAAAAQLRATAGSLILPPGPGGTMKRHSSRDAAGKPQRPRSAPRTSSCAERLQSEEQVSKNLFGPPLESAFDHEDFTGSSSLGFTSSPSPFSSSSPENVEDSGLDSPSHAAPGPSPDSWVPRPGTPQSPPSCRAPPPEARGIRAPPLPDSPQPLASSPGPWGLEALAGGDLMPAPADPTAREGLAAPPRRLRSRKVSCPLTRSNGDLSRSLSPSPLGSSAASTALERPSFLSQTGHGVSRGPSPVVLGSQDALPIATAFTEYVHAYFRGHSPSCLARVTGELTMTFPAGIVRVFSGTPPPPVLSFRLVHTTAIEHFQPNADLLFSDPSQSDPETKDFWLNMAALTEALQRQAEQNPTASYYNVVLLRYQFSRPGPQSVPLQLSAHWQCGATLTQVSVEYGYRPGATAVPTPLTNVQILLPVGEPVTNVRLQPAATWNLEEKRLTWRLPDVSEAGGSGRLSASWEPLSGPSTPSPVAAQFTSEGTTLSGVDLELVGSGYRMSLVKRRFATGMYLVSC

Amino acid sequences for entries named in this document (tags omitted). Residues count along the entry.
UniProt P63104: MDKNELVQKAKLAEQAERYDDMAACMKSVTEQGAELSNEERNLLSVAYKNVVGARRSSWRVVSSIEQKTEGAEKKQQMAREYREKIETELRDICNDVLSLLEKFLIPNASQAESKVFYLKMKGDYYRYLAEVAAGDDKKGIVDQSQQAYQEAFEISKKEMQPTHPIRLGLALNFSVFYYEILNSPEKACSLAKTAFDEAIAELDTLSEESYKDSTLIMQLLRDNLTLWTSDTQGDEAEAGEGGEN
UniProt P14780, residues 20-707: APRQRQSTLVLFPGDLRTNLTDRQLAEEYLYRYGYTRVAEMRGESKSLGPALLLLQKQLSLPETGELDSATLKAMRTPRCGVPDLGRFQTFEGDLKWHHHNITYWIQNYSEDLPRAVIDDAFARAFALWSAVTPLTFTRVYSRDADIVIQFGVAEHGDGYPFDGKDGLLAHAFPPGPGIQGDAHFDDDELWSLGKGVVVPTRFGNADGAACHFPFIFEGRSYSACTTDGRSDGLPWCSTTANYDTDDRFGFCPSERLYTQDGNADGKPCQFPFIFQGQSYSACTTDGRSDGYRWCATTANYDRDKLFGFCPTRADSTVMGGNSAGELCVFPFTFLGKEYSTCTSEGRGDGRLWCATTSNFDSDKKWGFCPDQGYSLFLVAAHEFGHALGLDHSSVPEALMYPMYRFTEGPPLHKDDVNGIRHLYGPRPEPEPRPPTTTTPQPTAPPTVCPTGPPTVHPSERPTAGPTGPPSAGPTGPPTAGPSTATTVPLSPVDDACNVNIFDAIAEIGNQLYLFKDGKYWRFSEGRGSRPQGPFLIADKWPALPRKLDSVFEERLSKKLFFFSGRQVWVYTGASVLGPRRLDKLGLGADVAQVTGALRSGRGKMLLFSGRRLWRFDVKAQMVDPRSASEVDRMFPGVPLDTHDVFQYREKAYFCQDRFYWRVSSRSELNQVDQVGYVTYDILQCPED

[2] = molecular target: T1, FCHo1-C-3×DDK (full-length wild-type FCHo1 with C-terminally fused 3×FLAG tag) (human); assay: co-immunoprecipitation with anti-FLAG antibody
[3] = molecular target: T2, FCHo1 (FCH domain only 1), cellular protein of A549 cells detected with the α584-804 antibody (human) (UniProt O14526); assay: in situ proximity ligation assay (PLA), A549 cells
T2 sequence (looked up): T1 sequence (looked up)

[4] = molecular target: T2, FCHo1 (FCH domain only 1), cellular protein of A549 cells detected with the α584-804 antibody (human); assay: in situ proximity ligation assay (PLA), FCHo1 (584-804) and MMP-9 antibodies, A549 cells

binding [1] | binding [2] | binding [3] | binding [4] | Substance
binds | binds | binds | – | 14-3-3ζ (from UniProt P63104 1-245)
– | – | – | binds | matrix metallopeptidase 9 (MMP-9) (from UniProt P14780 20-707) (enzyme)

From patent US20190085093A1
